Measurements from paper PMC6018636, “Mutually exclusive acetylation and ubiquitylation of the splicing factor SRSF5 control tumor growth” (Nature Communications, 2018).
No constants are given. Whether binding was seen depends on the method and setting. Binding seen in cells or lysates may run through a third protein. These calls come from enrichment with a bait or labelling near it, and not all partners need be listed. Where a sequence is shown, tags or fusion partners need not be part of it.

Protein sequences, listed by entry. Tags and fused reporters are not part of them.
UniProt P09429: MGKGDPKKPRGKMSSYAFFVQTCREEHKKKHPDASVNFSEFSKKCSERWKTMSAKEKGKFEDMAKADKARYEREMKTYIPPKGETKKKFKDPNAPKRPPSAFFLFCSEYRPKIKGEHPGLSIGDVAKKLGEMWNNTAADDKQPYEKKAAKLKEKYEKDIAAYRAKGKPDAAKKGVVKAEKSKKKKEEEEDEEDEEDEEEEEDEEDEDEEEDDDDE
UniProt P62820: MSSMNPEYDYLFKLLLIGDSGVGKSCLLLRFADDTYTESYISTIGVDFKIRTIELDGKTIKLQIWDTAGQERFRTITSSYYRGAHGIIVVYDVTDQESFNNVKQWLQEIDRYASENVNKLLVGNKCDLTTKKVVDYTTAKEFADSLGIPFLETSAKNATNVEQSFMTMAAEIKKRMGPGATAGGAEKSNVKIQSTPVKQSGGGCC
UniProt Q9H0U4: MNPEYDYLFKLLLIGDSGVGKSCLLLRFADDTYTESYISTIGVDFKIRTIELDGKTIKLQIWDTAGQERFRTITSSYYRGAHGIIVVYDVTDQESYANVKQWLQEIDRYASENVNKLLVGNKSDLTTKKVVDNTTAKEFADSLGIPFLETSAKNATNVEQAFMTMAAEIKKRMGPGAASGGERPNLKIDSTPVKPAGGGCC
UniProt P98175: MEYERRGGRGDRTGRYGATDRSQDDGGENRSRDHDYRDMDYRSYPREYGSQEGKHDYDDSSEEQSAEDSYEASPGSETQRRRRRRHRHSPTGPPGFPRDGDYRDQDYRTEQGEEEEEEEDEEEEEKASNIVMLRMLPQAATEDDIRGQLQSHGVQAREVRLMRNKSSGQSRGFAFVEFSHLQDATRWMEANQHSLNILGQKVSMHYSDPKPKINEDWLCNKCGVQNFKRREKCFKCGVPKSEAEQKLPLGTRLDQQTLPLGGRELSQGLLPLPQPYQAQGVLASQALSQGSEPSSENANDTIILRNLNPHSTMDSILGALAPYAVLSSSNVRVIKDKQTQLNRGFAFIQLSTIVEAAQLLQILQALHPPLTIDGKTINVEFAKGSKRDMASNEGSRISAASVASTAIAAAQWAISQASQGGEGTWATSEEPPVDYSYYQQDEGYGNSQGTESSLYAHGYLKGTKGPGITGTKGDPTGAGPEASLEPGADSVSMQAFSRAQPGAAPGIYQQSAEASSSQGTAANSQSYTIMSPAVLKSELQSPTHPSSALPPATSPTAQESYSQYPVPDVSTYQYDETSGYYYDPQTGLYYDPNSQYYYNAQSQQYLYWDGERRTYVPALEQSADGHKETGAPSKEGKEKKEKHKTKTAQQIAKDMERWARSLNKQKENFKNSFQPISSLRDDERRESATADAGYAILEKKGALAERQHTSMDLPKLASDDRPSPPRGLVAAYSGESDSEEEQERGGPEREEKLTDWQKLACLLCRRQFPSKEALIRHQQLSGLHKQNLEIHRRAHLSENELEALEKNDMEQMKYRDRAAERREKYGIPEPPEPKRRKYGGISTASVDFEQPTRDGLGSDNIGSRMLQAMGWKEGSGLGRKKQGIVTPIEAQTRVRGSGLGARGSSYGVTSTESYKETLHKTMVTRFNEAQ

T1: Flag-CCAR1L (long isoform of cell cycle and apoptosis regulator 1) (human) (UniProt Q8IX12)
T1 sequence: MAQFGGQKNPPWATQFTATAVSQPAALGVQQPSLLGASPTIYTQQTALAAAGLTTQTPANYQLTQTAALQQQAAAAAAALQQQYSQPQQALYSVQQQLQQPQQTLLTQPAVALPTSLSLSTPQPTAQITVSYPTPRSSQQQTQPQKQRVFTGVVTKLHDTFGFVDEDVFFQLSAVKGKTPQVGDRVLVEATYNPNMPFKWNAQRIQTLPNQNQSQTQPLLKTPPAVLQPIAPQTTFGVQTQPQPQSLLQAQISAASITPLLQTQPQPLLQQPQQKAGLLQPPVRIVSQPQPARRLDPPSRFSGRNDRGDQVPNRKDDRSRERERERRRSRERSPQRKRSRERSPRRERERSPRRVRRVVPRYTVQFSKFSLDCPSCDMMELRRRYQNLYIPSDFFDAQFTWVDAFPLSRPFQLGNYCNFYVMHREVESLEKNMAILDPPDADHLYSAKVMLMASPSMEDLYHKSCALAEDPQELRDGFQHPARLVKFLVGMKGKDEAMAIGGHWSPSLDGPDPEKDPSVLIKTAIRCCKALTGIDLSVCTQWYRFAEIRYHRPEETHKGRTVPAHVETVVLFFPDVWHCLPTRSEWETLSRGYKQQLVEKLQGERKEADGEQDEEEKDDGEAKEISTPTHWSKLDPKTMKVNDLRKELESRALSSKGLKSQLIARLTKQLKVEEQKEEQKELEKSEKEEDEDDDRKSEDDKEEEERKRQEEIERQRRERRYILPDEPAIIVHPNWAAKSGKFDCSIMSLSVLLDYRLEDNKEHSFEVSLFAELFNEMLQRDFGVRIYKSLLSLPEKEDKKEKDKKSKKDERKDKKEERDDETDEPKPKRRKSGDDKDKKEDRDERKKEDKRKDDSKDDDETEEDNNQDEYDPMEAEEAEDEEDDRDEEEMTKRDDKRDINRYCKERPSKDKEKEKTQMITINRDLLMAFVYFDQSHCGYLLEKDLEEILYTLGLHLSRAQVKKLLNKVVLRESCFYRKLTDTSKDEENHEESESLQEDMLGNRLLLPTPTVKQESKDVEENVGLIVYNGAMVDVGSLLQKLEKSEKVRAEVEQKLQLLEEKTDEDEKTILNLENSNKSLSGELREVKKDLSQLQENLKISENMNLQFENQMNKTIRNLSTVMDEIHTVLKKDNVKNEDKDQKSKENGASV

B1: GSDMA (endogenous) (protein, UniProt Q96QA5 1-445)
chain: MTMFENVTRALARQLNPRGDLTPLDSLIDFKRFHPFCLVLRKRKSTLFWGARYVRTDYTLLDVLEPGSSPSDPTDTGNFGFKNMLDTRVEGDVDVPKTVKVKGTAGLSQNSTLEVQTLSVAPKALETVQERKLAADHPFLKEMQDQGENLYVVMEVVETVQEVTLERAGKAEACFSLPFFAPLGLQGSINHKEAVTIPKGCVLAFRVRQLMVKGKDEWDIPHICNDNMQTFPPGEKSGEEKVILIQASDVGDVHEGFRTLKEEVQRETQQVEKLSRVGQSSLLSSLSKLLGKKKELQDLELALEGALDKGHEVTLEALPKDVLLSKEAVGAILYFVGALTELSEAQQKLLVKSMEKKILPVQLKLVESTMEQNFLLDKEGVFPLQPELLSSLGDEELTLTEALVGLSGLEVQRSGPQYMWDPDTLPRLCALYAGLSLLQQLTKAS

target: T1, Flag-CCAR1L (long isoform of cell cycle and apoptosis regulator 1) (human); experiment: affinity purification with mass spectrometry; anti-Flag immunoprecipitation (Protein A-G agarose) from A549 cells stably expressing Flag-CCAR1L or Flag-CCAR1S with endogenous CCAR1L/S depleted; IP buffer 50 mM Tris-HCl pH 8.0, 100 mM NaCl, 1 mM EDTA, 1% Nonidet P40; washed three times with TNE buffer; LC-MS/MS, 1% FDR

Molecule | binding
CDKN2A (endogenous) (human (endogenous in A549)) | binds
HMGB1 (from UniProt P09429 1-215) | binds
RAB1A (from UniProt P62820 1-205) | binds
RAB1B (from UniProt Q9H0U4 1-201) | binds
RBM10 (endogenous) (from UniProt P98175 1-930) | binds
B1 | binds
